The series deals with MutY adenine DNA glycosylase (UniProt P17802). Briefly: EMSA. The note with it: N at position 13 of SEQ 1 is adenine linked by CH2 to pyrrolidine (transition state analog 2a); N at position 13 of SEQ 2 is 8-oxoG [strand 1: 13 (adenine-CH2-pyrrolidine, 2a); strand 2: 13 (8-oxoG)]; estimated upper limit; label: 5'-32P on SEQ 1 strand; letters built from the parent sequence and the stated change.

The chains behind the UniProt entries cited, without tags or fusion partners. Where a name states a change or a piece, a line headed by the entry shows the natural chain unless it says otherwise.
UniProt P17802: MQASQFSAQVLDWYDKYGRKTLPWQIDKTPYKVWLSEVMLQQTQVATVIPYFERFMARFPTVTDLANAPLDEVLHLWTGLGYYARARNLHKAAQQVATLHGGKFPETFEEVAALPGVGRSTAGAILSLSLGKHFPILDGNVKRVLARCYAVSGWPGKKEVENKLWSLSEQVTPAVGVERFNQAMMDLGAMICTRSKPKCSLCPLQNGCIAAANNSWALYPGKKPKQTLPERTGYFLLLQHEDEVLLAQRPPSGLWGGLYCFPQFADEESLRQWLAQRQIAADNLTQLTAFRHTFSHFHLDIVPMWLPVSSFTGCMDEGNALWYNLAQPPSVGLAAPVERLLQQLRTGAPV

For at least one entry, the source does not settle the construct or the ends of the probe.

A word on the Kd: it is the constant that tells how readily two partners part at equilibrium. Regarding “GGATAGTGTCCAAGTTACTCGAAGC / GCTTCGAGTAACGTGGACACTATCC [hA (inhibitor 2a) 25-mer duplex opposite oxoG]”, the dissociation constant (Kd) is less than 2 pM.

Source of the values: patent US6369237.
